Results are given in words; binding and its absence hold for the method and conditions named. Some entries that bind do so weakly or less than the wild type.
Biological target: INB-1-11-8 c-MAF specific monoclonal antibody (rabbit)
Test: SPR, Biacore T200; antibody captured on immobilized recombinant Protein A

binding: binds
Substance: Recombinant Protein A (from UniProt P38507 37-327)
